No constants are given. Whether binding was seen depends on the method and setting. Some entries that bind do so weakly or less than the wild type.
Target: human renalase-1 (Homo sapiens) (UniProt Q5VYX0)
Assay: SPR, Biacore T100

Chains of the proteins cited; added tags and fusions are not shown. Lines headed by an entry give the natural chain unless they say otherwise; changes in a name come on top.
UniProt Q5VYX0: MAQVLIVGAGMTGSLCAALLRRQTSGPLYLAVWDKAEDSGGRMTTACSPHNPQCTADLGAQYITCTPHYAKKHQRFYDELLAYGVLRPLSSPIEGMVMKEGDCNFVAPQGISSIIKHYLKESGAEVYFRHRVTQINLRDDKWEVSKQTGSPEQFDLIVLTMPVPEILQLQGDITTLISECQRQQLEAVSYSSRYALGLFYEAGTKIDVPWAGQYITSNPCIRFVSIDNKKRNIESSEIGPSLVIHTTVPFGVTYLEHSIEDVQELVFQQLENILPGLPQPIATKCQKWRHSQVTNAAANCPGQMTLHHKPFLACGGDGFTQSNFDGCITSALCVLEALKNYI

- binding: binds
B1: anti-renalase monoclonal antibody 1D-28-4 (antibody, V domains shown)
VH: QSVEESGGRLVTPGTPLTLTCTVSGFSLSSFAVGWVRQAPGKGLEYIGIISSVGITRYASWAAGRFTISKTSTTVDLKITSPTTEDTATYFCARYGYSGDVNRLDLWGQGTLVTVSS
VL: AQVLTQTASPVSAAVGGTVTINCQASQSVYDNNNLAWYQQKPGQPPKQLIYGASTLASGVSSRFKGSGSGTQFTLTISGVQCDDAATYYCLGEFSCSSADCFAFGGGTEVVVKG
